Experimental findings from publication PMC8567304 are described below.

Amino acid sequences for entries named in this document (tags omitted).
UniProt O00506: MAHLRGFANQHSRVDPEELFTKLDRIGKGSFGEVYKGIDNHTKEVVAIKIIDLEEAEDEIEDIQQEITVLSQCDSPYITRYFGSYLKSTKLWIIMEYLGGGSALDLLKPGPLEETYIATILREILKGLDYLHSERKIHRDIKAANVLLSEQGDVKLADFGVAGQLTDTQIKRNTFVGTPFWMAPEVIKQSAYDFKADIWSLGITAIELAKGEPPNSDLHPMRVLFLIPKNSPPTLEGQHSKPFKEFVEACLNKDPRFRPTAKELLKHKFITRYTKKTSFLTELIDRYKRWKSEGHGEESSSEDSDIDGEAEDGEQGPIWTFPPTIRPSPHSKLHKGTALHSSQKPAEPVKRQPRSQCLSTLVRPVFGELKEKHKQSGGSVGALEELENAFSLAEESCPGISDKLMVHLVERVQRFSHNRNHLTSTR

In experiment [1] the target is T1, MYC-TAOK3 (human MYC-tagged full-length TAOK3) (human) (UniProt Q9H2K8).
T1 sequence: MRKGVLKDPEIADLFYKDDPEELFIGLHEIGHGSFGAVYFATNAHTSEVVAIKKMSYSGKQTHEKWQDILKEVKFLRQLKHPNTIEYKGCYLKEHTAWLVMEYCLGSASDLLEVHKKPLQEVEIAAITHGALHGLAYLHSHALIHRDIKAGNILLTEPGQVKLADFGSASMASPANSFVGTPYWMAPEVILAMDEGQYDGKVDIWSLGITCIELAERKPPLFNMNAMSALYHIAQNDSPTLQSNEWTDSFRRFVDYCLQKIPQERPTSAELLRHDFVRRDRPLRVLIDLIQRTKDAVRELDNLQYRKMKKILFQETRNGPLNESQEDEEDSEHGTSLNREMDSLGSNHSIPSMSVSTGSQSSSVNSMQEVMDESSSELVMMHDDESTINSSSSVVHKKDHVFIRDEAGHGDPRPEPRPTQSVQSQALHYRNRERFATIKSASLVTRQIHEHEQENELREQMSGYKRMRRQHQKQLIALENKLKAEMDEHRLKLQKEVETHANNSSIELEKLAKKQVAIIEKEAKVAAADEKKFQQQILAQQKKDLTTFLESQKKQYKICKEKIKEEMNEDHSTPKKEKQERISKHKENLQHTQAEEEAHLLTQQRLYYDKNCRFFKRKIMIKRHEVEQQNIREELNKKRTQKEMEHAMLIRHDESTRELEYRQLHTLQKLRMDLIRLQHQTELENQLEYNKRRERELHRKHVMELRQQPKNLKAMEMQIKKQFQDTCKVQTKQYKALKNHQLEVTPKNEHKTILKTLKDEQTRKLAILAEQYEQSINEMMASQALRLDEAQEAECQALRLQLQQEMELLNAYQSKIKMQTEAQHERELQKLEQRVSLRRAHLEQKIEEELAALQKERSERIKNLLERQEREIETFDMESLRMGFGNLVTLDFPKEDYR
The experiment in a line: co-IP; protein extracts of transfected IHHs; immunoprecipitation with anti-MYC antibodies (Anti-c-MYC Magnetic Beads); Western blot.

Experiment [2] concerns the target Gal4-STK25 (full-length human STK25 fused to the Gal4 DNA-binding domain) (human) (UniProt O00506). The experiment in a line: two-hybrid; Gal4-STK25 bait (pB35) screened against a random-primed primary human hepatocyte cDNA library in pP6; mating of YHGX13 and CG1945; His+ colonies on medium lacking tryptophan, leucine, methionine and histidine.

No constants are given. Whether binding was seen depends on the method and setting. For some assays here: Binding seen in cells or lysates may run through a third protein. Some binding calls cover weakened binding; strength is not graded here. For some assays here: Tags and fused reporters may be left off the sequences shown.

Turning to FLAG-STK25 (from UniProt O00506 1-426), in experiment [1], the binding entry is “binds”.

B1: TAOK3 prey fragment (amino acids 1 to 447) (domain or fragment, UniProt Q9H2K8 1-447)
chain: MRKGVLKDPEIADLFYKDDPEELFIGLHEIGHGSFGAVYFATNAHTSEVVAIKKMSYSGKQTHEKWQDILKEVKFLRQLKHPNTIEYKGCYLKEHTAWLVMEYCLGSASDLLEVHKKPLQEVEIAAITHGALHGLAYLHSHALIHRDIKAGNILLTEPGQVKLADFGSASMASPANSFVGTPYWMAPEVILAMDEGQYDGKVDIWSLGITCIELAERKPPLFNMNAMSALYHIAQNDSPTLQSNEWTDSFRRFVDYCLQKIPQERPTSAELLRHDFVRRDRPLRVLIDLIQRTKDAVRELDNLQYRKMKKILFQETRNGPLNESQEDEEDSEHGTSLNREMDSLGSNHSIPSMSVSTGSQSSSVNSMQEVMDESSSELVMMHDDESTINSSSSVVHKKDHVFIRDEAGHGDPRPEPRPTQSVQSQALHYRNRERFATIKSASLVTRQ
For the molecule B1, in experiment [2], the binding result is given as “binds”.
